These are yes or no findings as the source states them, for the method shown. Some binding calls cover weakened binding; strength is not graded here.

Protein sequences, listed by entry. Tags and fused reporters are not part of them.
UniProt P10415: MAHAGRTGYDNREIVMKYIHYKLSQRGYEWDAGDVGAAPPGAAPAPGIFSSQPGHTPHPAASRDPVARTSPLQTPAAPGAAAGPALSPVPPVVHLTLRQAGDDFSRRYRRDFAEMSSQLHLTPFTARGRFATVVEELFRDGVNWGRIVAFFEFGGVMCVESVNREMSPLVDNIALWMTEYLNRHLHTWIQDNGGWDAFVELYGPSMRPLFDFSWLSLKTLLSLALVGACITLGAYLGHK

This assay has as its target Bcl-2 (UniProt P10415). Nature of the assay: in vitro binding / immunoprecipitation (FIG. 7).

B1: iASPP (protein)
chain: MWMKDPVARPLSPTRLQPALPPEAQSVPELEEVARVLAEIPRPLKRRGSMEQAPAVALPPTHKKQYQQIISRLFHRHGGPGPGGRSQSCPPSLRDLRPGQGPLLLPHQLPFHRPAPSQSSPPEQPQSMEMRSVLRKAGSPRKARRARLNPLVLLLDAALTGELEVVQQAVKEMNDPSQPNEEGITALHNAICGANYSIVDFLITAGANVNSPDSHGWTPLHCAASCNDTVICMALVQHGAAIFATTLSDGATAFEKCDPYREGYADCATYLADVEQSMGLMNSGAVYALWDYSAEFGDELSFREGESVTVLRRDGPEETDWWWAALHGQEGYVPRNYFGLFPRVKPQRSKV
For the molecule B1, the binding result is “binds”.

These data come from US20070128157A1.
